Measured values from US11020405B2, “Method for prevention or treatment of diabetic complications” (KANGWON NATIONAL UNIVERSITY UNIVERSITY-INDUSTRY COOPERATION …, priority 2017, dated 2021).

Assay: Body weight and blood glucose monitoring in diabetic mice
Assay type: in vivo, C57BL/6 mice
Method: FIGS. 19A and 19B show the preventive effects of midazolam against hyperglycemia-induced endothelial apoptosis in the aortic endothelium of diabetic mice. Six-week-old male C57BL/6 mice were administered with streptozotocin (150 mg/kg body weight) to give diabetic mouse models. One week after streptozotocin injection, diabetic mice were administered midazolam (10 mg/kg) by intraperitoneal injection daily for 14 days. The body weight of mice were measure in normal (20.7±0.1 g), diabetic (17.1±0.1 g), and midazolam supplemented diabetic mice (17.0±0.3 g). Blood glucose levels were also monitored in normal (124.0±12.0 mg/dL), diabetic (509.0±1.0 mg/dL), and midazolam supplemented diabetic mice (515.7±3.4 mg/dL). Aorta of mice were dissected and cut longitudinally to expose the endothelium. And then aortic segments were fixed for 15 min with 1% (w/v) paraformaldehyde in PBS, followed by treatment for 30 min with 70% (v/v) ethanol on ice. Apoptotic cells were stained by terminal deoxynucleotidyl transferase dUTP nick end labeling (TUNEL) with nuclear counterstaining with DAPI and visualized by confocal microscopy in the aortic endothelium. Representative images of endothelial apoptosis in aorta are shown in additional FIG. 19A. Scale bar, 100 μm. The results of endothelial apoptosis quantitatively analyzed by measurement of TUNEL staining in the aorta are shown in additional FIG. 19B (n=4 for normal and diabetic, n=6 for diabetic+Midazolam).
FIGS. 20A and 20B show the preventive effects of midazolam against hyperglycemia-induced renal vascular leakage in diabetic mice. Six-week-old male C57BL/6 mice were administered with streptozotocin (150 mg/kg body weight) to give diabetic mouse models. Two weeks after streptozotocin injection, diabetic mice were administered 10 mg/kg midazolam by intraperitoneal injection daily for 2 days, and vascular leakage was investigated. The body weight of mice were measure in normal (19.9±0.3 g), diabetic (17.7±0.3 g), and midazolam supplemented diabetic mice (17.7±0.3 g). Blood glucose levels were also monitored in normal (123.5±6.5 mg/dL), diabetic (505.0±89.0 mg/dL), and midazolam supplemented diabetic mice (500.3±63.3 mg/dL). The mice were anesthetized with 3% isoflurane, and 1.25 mg of FITC-dextran was injected into the right ventricle of each mouse and allowed to circulate for 5 min. […] The results of vascular leakage quantitatively analyzed by measuring the fluorescence intensity of FITC-dextran in the kidneys are shown in additional FIG. 20B. […]
FIGS. 21A and 21B show the preventive effects of midazolam against hyperglycemia-induced pulmonary vascular leakage in diabetic mice. […] Blood glucose levels were also monitored in normal (123.5±6.5 mg/dL), diabetic (505.0±89.0 mg/dL), and midazolam supplemented diabetic mice (500.3±63.3 mg/dL). […]

Cc1ncc2n1-c1ccc(Cl)cc1C(c1ccccc1F)=NC2 [midazolam]
blood glucose level (Test Example 15: midazolam supplemented diabetic mice, 10 mg/kg intraperitoneal daily for 14 days): 515.7 ± 3.4 mg/dL | blood glucose level (Test Example 16: midazolam supplemented diabetic mice, 10 mg/kg intraperitoneal daily for 2 days): 500.3 ± 63.3 mg/dL | blood glucose level (Test Example 17: midazolam supplemented diabetic mice, 10 mg/kg intraperitoneal daily for 2 days): 500.3 ± 63.3 mg/dL | blood glucose level (Test Example 18: midazolam supplemented diabetic mice, 10 mg/kg intraperitoneal daily for 14 days, B16F10 cells): 515.7 ± 3.4 mg/dL
